Experiment [1] concerns the target FLAG-tagged UPF2 (UniProt Q9HAU5). As to the kind of experiment: affinity purification with mass spectrometry.
For experiment [2] the target is unchanged. The experiment in a line: affinity purification with mass spectrometry. The source holds these as a separate data set.

The chains behind the UniProt entries cited, without tags or fusion partners.
UniProt Q9HAU5: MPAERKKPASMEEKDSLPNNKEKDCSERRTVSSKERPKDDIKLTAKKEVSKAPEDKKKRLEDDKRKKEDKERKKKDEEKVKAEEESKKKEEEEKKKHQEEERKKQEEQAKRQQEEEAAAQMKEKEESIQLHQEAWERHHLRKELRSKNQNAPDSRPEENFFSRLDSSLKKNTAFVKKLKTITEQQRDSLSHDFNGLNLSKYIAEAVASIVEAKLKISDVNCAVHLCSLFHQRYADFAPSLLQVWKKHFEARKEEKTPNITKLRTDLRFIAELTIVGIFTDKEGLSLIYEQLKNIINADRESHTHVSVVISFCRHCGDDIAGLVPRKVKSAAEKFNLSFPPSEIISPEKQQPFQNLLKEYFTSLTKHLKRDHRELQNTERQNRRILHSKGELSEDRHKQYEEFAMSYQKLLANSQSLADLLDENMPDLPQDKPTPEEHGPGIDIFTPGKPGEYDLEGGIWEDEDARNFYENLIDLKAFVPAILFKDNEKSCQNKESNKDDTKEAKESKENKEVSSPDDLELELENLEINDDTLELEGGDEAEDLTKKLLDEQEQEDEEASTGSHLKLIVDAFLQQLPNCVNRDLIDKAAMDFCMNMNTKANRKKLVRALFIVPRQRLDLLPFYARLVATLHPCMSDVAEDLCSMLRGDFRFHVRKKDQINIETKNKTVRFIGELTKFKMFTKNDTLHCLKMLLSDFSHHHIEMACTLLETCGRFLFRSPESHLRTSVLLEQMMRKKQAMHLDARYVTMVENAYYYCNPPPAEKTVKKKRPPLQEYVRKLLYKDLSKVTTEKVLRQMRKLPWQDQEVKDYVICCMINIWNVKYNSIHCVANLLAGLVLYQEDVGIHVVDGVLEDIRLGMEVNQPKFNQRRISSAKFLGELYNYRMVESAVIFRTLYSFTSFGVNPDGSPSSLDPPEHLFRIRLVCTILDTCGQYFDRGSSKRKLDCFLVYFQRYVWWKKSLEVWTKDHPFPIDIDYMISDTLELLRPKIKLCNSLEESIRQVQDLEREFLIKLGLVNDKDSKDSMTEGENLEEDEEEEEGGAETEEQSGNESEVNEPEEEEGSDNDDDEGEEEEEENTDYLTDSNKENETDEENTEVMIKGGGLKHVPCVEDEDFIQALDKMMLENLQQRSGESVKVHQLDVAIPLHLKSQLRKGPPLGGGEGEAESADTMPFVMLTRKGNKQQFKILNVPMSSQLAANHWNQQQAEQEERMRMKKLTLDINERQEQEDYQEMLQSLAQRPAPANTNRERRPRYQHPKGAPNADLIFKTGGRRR

Where two headings read alike, the source gives them in different places. Results are given in words; binding and its absence hold for the method and conditions named. In cells and extracts the contact can be indirect. Here binding means that the protein was enriched with, or labelled near, the bait; the list need not be complete.

B1: UPF3A (protein, UniProt Q9H1J1-1 1-476)
chain: MRSEKEGAGGLRAAVAARGPSGREKLSALEVQFHRDSQQQEAETPPTSSSGCGGGAGKPREEKRTALSKVVIRRLPPGLTKEQLEEQLRPLPAHDYFEFFAADLSLYPHLYSRAYINFRNPDDILLFRDRFDGYIFLDSKGLEYPAVVEFAPFQKIAKKKLRKKDAKTGSIEDDPEYKKFLETYCVEEEKTSANPETLLGEMEAKTRELIARRTTPLLEYIKNRKLEKQRIREEKREERRRRELEKKRLREEEKRRRREEERCKKKETDKQKKIAEKEVRIKLLKKPEKGEEPTTEKPKERGEEIDTGGGKQESCAPGAVVKARPMEGSLEEPQETSHSGSDKEHRDVERSQEQESEAQRYHVDDGRRHRAHHEPERLSRRSEDEQRWGKGPGQDRGKKGSQDSGAPGEAMERLGRAQRCDDSPAPRKERLANKDRPALQLYDPGARFRARECGGNRRICKAEGSGTGPEKREEAE
With B1, the binding result in the experiment with FLAG-tagged UPF2 [1] and with FLAG-tagged UPF2 [2] was “binds” in each case.

B2: UPF3B (protein, UniProt Q9BZI7-2 1-470)
chain: MKEEKEHRPKEKRVTLLTPAGATGSGGGTSGDSSKGEDKQDRNKEKKEALSKVVIRRLPPTLTKEQLQEHLQPMPEHDYFEFFSNDTSLYPHMYARAYINFKNQEDIILFRDRFDGYVFLDNKGQEYPAIVEFAPFQKAAKKKTKKRDTKVGTIDDDPEYRKFLESYATDNEKMTSTPETLLEEIEAKNRELIAKKTTPLLSFLKNKQRMREEKREERRRREIERKRQREEERRKWKEEEKRKRKDIEKLKKIDRIPERDKLKDEPKIKLLKKPEKGDEKELDKREKAKKLDKENLSDERASGQSCTLPKRSDSELKDEKPKRPEDESGRDYREREREYERDQERILRERERLKRQEEERRRQKERYEKEKTFKRKEEEMKKEKDTLRDKGKKAESTESIGSSEKTEKKEEVVKRDRIRNKDRPAMQLYQPGARSRNRLCPPDDSTKSGDSAAERKQESGISHRKEGGEE
As to B2, the binding result with FLAG-tagged UPF2 [2] is on record as “binds”.
